Drawing on patent US20050152901A1, this text covers binding for one molecule.

Sequences of proteins named here, by UniProt entry; tags and fusion partners are left off. Residues count along the entry.
UniProt P17181, residues 28-436: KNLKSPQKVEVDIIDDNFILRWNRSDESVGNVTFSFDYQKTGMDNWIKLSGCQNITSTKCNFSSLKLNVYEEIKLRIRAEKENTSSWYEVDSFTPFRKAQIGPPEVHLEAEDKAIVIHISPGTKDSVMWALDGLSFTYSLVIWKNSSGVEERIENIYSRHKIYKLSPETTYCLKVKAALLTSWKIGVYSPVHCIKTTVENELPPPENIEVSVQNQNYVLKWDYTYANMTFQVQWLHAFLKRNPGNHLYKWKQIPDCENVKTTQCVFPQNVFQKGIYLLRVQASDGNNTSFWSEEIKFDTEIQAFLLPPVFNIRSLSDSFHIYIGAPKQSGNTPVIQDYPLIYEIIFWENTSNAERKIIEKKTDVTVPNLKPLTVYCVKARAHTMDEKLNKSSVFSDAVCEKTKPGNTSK

These are yes or no findings as the source states them, for the method shown. Some binding calls cover weakened binding; strength is not graded here.

The target of the test is IFNAR1 (IFNAR1 chain of the type 1 interferon receptor) (UniProt P17181). Kind of test: method not described.

B1: CPI-1697, humanized anti-IFNAR-1 antibody (heavy chain H3, light chain K1) (antibody, human IgG4, V domains shown)
VH: EVQLVESGGGLVQPGGSLRLSCAFSGFTLSTSGMGIGWVRQAPGKGLEWVAHWWDDDKYYNPSLKSRFTISRDTSKNTVYLQMNSLRAEDTAVYYCARNYYPYDAWFDYWGQGTLVTVS
VL: DIQMTQSPSSLSASVGDRVTITCSASSSINSNHLHWYQQKPGKAPKLLIYRTSILASGVPSRFSGSGSGTSFTLTISSLQPEDFATYYCQQGSNIPFTFGQGTKVEIKR
B1: the binding result is “binds”.
